# Experimental data: PMC10711284
# Test system: LcMYB71 (Lonicera caerulea)
# Assay: EMSA
# Settings: 100-, 200-, 400-fold unlabeled probe reduces the shift; LightShift Chemiluminescent EMSA Kit (manufacturer's instructions), 6% native PAGE; pH and temperature not stated; recombinant protein; protein details: N-terminal 6xHis; label: biotin 3'-end
sequence,measurement,value
CATTTAAAACTCTAACCAAACATATGCGTA (double strand) [P2 (pro2)],binding result,binds
GCTATAATATTGTTTGGTTGGGTTTTTAAA (double strand) [P1 (pro1)],binding result,binds

# For at least one entry, the source does not settle the construct or the ends of the probe.
